Results as given in patent publication US12311028B2, “Polymer-based macromolecular prodrugs” (The Children's Hospital of Philadelphia, priority 2018, dated 2025).

Test system: BE(2)C cells
Experiment: Antiproliferative effect of [PEG-SN38-BG]8 on BE(2)C with/without vorinostat or entinostat
Type: cell-based, human
Settings: vorinostat alone, 1-5 μM
Procedure: FIG. 13: Evaluation of the potentiating effect of vorinostat on the antiproliferative activities of [PEG-SN38-BG]8 and SN-38 ((A) and (B), respectively) in chemoresistant NB cells, BE(2)C. In accordance with vorinostat-induced NET expression reported to peak at 6 hr, an exposure period of 6 hr was chosen for the present experiment. BE(2)C cells were incubated with [PEG-SN38-BG]8 or SN-38 at concentrations equivalent to 25-100 nM of SN-38, with/without vorinostat (1.25-5.0 μM). Cell growth was measured by bioluminescence. BE(2)C cell survival data at 6 days post treatment were analyzed for hyperadditivity by applying a model z=z0+A·x+B·y+C·[x·y] and determining the significance of the interaction term C.
FIG. 14: Antiproliferative effect of [PEG-SN38-BG]8 prodrug on NET-expressing, chemoresistant NB cells, BE(2)C. The effect on cell growth kinetics was studied in comparison to free SN-38 or bipartite [PEG-SN38]8 lacking functionalization with BG (A). Cells were exposed for 4 hr to equivalent concentrations of the compounds, corresponding to 125 nM of SN-38. […] Cell growth was monitored by bioluminescence. […] Experimental data were analyzed for hyperadditivity using a model z=z0+A·x+B·y+C·[x·y] and determining the significance of the interaction term C. […]

O=C(CCCCCCC(=O)Nc1ccccc1)NO [vorinostat]
own BE(2)C cell growth inhibitory effect: only moderate
